No constants are given. Whether binding was seen depends on the method and setting. In cells and extracts the contact can be indirect. Some entries that bind do so weakly or less than the wild type.
Target: T1, tetraspanin CD151 (human (endogenous in HCCLM3)) (UniProt P48509)
T1 sequence: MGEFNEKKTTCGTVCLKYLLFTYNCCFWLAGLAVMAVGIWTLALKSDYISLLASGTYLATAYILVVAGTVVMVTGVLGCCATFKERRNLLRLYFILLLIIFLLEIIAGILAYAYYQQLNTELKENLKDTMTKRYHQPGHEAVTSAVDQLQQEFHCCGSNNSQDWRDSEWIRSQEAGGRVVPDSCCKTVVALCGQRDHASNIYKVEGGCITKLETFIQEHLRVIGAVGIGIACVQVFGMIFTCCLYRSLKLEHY
Test: co-IP; endogenous proteins in HCCLM3 cells; rabbit anti-human Mortalin and mouse anti-human CD151 monoclonal antibodies; IgG as control

By UniProt entry, the sequences of proteins in these tests, tags left out. Residues count along the entry.
UniProt P38646, residues 47-679: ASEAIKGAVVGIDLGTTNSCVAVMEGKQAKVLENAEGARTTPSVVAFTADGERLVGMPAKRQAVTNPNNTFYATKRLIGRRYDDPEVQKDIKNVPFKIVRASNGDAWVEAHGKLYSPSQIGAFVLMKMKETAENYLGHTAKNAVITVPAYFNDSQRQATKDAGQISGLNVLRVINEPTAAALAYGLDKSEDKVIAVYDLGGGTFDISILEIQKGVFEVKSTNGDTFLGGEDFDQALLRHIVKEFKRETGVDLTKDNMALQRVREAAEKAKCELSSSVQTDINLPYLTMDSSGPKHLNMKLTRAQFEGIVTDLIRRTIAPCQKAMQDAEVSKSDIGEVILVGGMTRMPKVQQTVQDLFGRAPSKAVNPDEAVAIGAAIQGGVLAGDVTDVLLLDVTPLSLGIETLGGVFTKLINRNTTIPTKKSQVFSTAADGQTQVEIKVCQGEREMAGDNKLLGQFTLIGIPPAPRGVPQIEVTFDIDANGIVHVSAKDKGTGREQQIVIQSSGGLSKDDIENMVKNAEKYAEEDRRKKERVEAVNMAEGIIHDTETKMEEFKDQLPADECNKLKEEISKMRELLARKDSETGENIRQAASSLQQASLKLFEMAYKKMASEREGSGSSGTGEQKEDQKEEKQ

Substance: Mortalin (from UniProt P38646 47-679)
- binding: binds

Reference: PMC6856732
